According to the M2OR odorant receptor database:
Where a chain is given by its changes, count along the chain named. The list shows a part of the results, in another mix than the full data. Calls are pooled over several reports, among them a noisy single-well screen. The list shows a part of the results.

Chains of the proteins cited; added tags and fusions are not shown. Where a name states a change or a piece, a line headed by the entry shows the natural chain unless it says otherwise. A line that says so, or that is headed by a name, gives the form on record, which may keep a tag or linker.
UniProt A3KFT3: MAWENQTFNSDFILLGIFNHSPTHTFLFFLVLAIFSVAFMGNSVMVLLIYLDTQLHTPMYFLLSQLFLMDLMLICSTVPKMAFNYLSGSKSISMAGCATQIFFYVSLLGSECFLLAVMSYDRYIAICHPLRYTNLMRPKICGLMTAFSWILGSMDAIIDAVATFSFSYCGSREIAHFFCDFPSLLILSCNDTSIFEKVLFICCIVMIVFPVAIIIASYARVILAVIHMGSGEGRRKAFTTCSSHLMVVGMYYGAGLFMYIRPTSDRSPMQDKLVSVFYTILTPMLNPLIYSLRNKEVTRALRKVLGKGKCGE
UniProt O43869: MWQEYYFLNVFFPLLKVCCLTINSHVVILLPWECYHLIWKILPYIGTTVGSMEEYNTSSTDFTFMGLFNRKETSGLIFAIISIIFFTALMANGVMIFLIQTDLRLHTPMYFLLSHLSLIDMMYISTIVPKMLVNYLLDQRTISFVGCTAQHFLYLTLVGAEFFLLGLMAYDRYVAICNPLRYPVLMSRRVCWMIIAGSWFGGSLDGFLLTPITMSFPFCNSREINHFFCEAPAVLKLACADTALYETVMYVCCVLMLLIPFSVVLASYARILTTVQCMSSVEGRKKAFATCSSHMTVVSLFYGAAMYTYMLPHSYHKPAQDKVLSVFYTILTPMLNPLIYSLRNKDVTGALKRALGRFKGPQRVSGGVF
UniProt Q8NH01: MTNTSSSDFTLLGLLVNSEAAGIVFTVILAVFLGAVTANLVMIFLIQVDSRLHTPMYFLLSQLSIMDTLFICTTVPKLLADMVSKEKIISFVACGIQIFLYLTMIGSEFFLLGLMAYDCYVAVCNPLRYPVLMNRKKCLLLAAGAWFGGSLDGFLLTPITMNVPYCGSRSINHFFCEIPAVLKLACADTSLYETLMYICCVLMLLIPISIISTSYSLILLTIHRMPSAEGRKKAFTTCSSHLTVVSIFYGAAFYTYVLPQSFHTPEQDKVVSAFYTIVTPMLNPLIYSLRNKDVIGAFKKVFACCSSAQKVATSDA
UniProt Q8NG77: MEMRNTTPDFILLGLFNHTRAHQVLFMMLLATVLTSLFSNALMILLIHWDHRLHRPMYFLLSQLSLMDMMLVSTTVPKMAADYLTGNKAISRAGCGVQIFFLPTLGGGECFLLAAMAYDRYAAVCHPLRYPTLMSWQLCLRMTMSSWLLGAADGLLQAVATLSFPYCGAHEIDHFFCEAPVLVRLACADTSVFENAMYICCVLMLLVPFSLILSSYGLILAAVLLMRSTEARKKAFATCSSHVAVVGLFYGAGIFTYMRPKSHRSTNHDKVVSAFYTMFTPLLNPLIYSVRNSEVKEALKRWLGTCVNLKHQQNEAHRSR
OR2M7, as listed by the source: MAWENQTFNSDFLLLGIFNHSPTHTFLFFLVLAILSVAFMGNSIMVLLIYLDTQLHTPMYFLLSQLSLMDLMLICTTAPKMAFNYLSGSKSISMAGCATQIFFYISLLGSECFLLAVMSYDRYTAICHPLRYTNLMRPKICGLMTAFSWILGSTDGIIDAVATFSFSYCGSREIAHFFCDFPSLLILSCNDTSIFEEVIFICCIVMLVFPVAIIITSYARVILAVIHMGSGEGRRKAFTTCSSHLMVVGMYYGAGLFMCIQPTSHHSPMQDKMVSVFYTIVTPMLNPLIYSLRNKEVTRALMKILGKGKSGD

Tests used:
Details in all cases: stereoisomer not certain
[1] = target: T1, OR2M7 (Homo sapiens) (UniProt Q8NG81)
T1 sequence (whole entry): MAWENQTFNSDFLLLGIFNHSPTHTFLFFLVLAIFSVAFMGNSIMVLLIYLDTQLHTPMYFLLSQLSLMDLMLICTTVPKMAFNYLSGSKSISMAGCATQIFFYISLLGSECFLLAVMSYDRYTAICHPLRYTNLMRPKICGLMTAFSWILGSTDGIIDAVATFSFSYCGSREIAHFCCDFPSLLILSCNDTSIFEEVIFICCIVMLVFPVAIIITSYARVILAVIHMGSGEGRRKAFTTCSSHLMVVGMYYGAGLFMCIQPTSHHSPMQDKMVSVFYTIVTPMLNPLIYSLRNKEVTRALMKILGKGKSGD
How it was run: (§1)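 Values were gathered from published papers (main text and supplementary material), with extra details requested from the original authors when needed, and checked for typos and inconsistencies. Each receptor–molecule pair is called responsive (active) if the original authors judged the measured signal statistically different from baseline, and non-responsive (inactive) otherwise. Assay methods varied by source, often transient mammalian cell-line luciferase assays. Recorded details include cell line, G-protein, co-transfected protein and tags.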

[2] = tested on: T2, OR2M7
T2 sequence (whole entry): T1 sequence (whole entry) with F35L, V78A, C178F
How it was run: as §1

[3] = tested on: T3, OR2M7; remark: listed apart in the source
T3 sequence (whole entry): T1 sequence (whole entry) with F35L, V78A, C178F, D191N
How it was run: as §1

[4] = tested on: T4, OR2S1
T4 sequence (whole entry): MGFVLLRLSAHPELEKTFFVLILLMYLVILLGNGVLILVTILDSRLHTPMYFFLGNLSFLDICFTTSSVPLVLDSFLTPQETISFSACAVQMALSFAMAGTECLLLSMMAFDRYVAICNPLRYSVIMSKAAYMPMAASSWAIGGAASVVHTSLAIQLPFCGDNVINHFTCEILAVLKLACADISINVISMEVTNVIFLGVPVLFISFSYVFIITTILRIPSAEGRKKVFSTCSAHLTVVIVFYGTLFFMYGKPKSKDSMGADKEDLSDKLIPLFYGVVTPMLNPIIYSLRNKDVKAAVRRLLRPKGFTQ
How it was run: as §1

[5] = target: T5, OR2T10 (Homo sapiens) (UniProt Q8NGZ9)
T5 sequence (whole entry): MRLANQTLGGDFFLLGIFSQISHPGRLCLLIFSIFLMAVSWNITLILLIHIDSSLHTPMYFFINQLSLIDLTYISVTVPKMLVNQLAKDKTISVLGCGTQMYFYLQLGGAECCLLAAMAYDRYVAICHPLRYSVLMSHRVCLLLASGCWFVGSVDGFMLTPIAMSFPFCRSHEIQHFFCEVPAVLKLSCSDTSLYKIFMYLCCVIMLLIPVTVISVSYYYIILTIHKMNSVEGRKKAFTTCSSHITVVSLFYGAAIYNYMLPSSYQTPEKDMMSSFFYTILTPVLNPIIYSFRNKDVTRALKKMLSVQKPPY
How it was run: as §1

[6] = target: OR2M5 (Homo sapiens) (UniProt A3KFT3)
How it was run: as §1

[7] = target: OR2S2 (Homo sapiens) (UniProt Q9NQN1)
How it was run: as §1

[8] = target: OR2T1 (Homo sapiens) (UniProt O43869)
How it was run: as §1

[9] = target: OR2T11 (Homo sapiens) (UniProt Q8NH01)
How it was run: as §1

[10] = target: OR2T12 (Homo sapiens) (UniProt Q8NG77)
How it was run: as §1

| SMILES | odorant receptor agonist call [1] | odorant receptor agonist call [2] | odorant receptor agonist call [3] | odorant receptor agonist call [4] | odorant receptor agonist call [5] | odorant receptor agonist call [6] | odorant receptor agonist call [7] | odorant receptor agonist call [8] | odorant receptor agonist call [9] | odorant receptor agonist call [10] |
| --- | --- | --- | --- | --- | --- | --- | --- | --- | --- | --- |
| CC(=O)c1ccccc1 | inactive | inactive | inactive | inactive | inactive | – | – | – | – | – |
| CCCCCCCCC=O | inactive | – | – | – | – | – | – | – | – | – |
| CC12CCC(C1)C(C)(C)C2=O (stereo unspecified) | inactive | inactive | inactive | inactive | inactive | – | – | – | – | – |
| COC(=O)c1ccccc1 | inactive | inactive | inactive | inactive | active | – | – | – | – | – |
| O=C1CCCCCCCCCCCCCCO1 | inactive | inactive | inactive | inactive | inactive | – | – | – | – | – |
| O=CCc1ccccc1 | inactive | inactive | inactive | inactive | inactive | – | – | – | – | – |
| CC1COCc2cc3c(cc21)C(C)(C)C(C)C3(C)C (stereo unspecified) | active | active | active | active | active | – | – | – | – | – |
| CC12C=CCC1C1CCC3CC(=O)CCC3(C)C1CC2 (stereo unspecified) | inactive | inactive | inactive | inactive | inactive | inactive | inactive | inactive | inactive | inactive |
| CC=Cc1ccc(O)c(OC)c1 | inactive | active | inactive | active | inactive | – | – | – | – | – |
| C=CCc1ccc(OC)c(OC)c1 | inactive | inactive | inactive | inactive | inactive | – | – | – | – | – |
| CC(C)CC(=O)O | inactive | inactive | inactive | inactive | inactive | – | – | – | – | – |
| CC1CCC(C(C)C)C(O)C1 (stereo unspecified) | inactive | inactive | inactive | active | inactive | – | – | – | – | – |
| CC(C)(C)c1ccc(CCC=O)cc1 | inactive | inactive | inactive | inactive | inactive | – | – | – | – | – |
| C=CCc1ccc(OC(C)=O)c(OC)c1 | inactive | inactive | inactive | inactive | inactive | – | – | – | – | – |
| COC(=O)c1ccccc1O | inactive | inactive | inactive | inactive | inactive | – | – | – | – | – |
| CC(=O)C(C)=O | inactive | inactive | inactive | inactive | inactive | – | – | – | – | – |
| c1cnccn1 | inactive | inactive | inactive | inactive | inactive | – | – | – | – | – |
| CCCCCCCCCCC=O | inactive | inactive | inactive | inactive | inactive | – | – | – | – | – |

| SMILES | odorant receptor agonist call [1] | odorant receptor agonist call [2] | odorant receptor agonist call [3] | odorant receptor agonist call [4] | odorant receptor agonist call [5] | odorant receptor agonist call [6] | odorant receptor agonist call [7] | odorant receptor agonist call [8] | odorant receptor agonist call [9] | odorant receptor agonist call [10] |
| --- | --- | --- | --- | --- | --- | --- | --- | --- | --- | --- |
| C=CCSCC=C | inactive | inactive | inactive | inactive | inactive | – | – | – | – | – |
| CCCCCCCC=O | inactive | inactive | inactive | inactive | inactive | – | – | – | – | – |
| COc1ccccc1O | inactive | inactive | inactive | inactive | inactive | – | – | – | – | – |
| CCCCCOC(C)=O | inactive | inactive | inactive | inactive | active | – | – | – | – | – |
| CC(C)CCC(=O)O | inactive | inactive | inactive | inactive | inactive | – | – | – | – | – |
| CCC=CCCO | inactive | inactive | inactive | inactive | inactive | – | – | – | – | – |
| CCCCCC(C)=O | inactive | inactive | inactive | inactive | inactive | – | – | – | – | – |
| CC(=O)OCC=C(C)CCC=C(C)C | inactive | inactive | inactive | inactive | inactive | – | – | – | – | – |
| O=C1CCCCC1 | inactive | inactive | inactive | inactive | inactive | – | – | – | – | – |
| CCC1(O)C2(C)CCC(C2)C1(C)C (stereo unspecified) | inactive | inactive | inactive | inactive | inactive | – | – | – | – | – |
| CC12CCC(CC1)C(C)(C)O2 | inactive | inactive | inactive | inactive | inactive | – | – | – | – | – |
| CC12C=CCC1C1CCC3=CC(=O)CCC3(C)C1CC2 (stereo unspecified) | inactive | inactive | inactive | inactive | inactive | – | – | – | – | – |
| CC1=CCC(C(C)(C)O)CC1 (stereo unspecified) | inactive | inactive | inactive | inactive | inactive | – | – | – | – | – |
| C=CC(C)(O)CCC=C(C)C (stereo unspecified) | inactive | inactive | inactive | inactive | inactive | – | – | – | – | – |
| CCCCCCCCCC=O | inactive | inactive | inactive | inactive | inactive | – | – | – | – | – |
| CCCCCC(=O)O | inactive | inactive | inactive | inactive | inactive | – | – | – | – | – |
| CC(C)=CCCC(C)=CC=O | inactive | inactive | inactive | inactive | inactive | – | – | – | – | – |

Some of the entries so far, in CSV form.
SMILES,odorant receptor agonist call [1],odorant receptor agonist call [2],odorant receptor agonist call [3],odorant receptor agonist call [4],odorant receptor agonist call [5],odorant receptor agonist call [6],odorant receptor agonist call [7],odorant receptor agonist call [8],odorant receptor agonist call [9],odorant receptor agonist call [10]
CCCCCCCC=O,inactive,inactive,inactive,inactive,inactive,–,–,–,–,–
COc1ccccc1O,inactive,inactive,inactive,inactive,inactive,–,–,–,–,–
CCCCCOC(C)=O,inactive,inactive,inactive,inactive,active,–,–,–,–,–
